Measured values: patent publication US20250281495A1, “METHODS FOR INHIBITING INFLAMMATION AND PROGRESSION OF ATHEROSCLEROTIC PLAQUES AND CARDIOVASCULAR EVENTS IN PATIENTS WITH CEREBRO- AND CARDIO-VASCULAR DISEASE” (ICAHN SCHOOL OF MEDICINE AT MOUNT SINAI, priority 2021, published 2025)
“Also recorded” adds a separate entry of the source. At least one structure is not confirmed: it was looked up by name or label, or the drawing left a doubt.

Assays:
[1] = tested on: Apolipoprotein E-deficient (Apoe-/-) mice; test: Atherosclerosis progression in Apoe-/- mice on western diet (histology, RNA sequencing); assay type: in vivo
[2] = tested on: kinase phosphorylation (pCREB, pp38, pMAPKA2P, pS6, pERK1/2) in PBMCs; test: CyTOF screening of candidate small molecules in healthy PBMCs stimulated with atherosclerotic plasma; assay type: cell-based, human; details: for CREB phosphorylation / S6 phosphorylation: CD14+ and CD16+ monocytes and CD1c+ DC
Description: To test the efficacy of candidate small molecules in reversing immune response of PBMCs to atherosclerotic plasma, the inventors examined cell type-specific pharmacologic effects of selected candidate compounds. Using healthy PBMCs, the inventors assessed the activity of selected small molecules in the presence of atherosclerotic plasma stimulation that followed 30 minutes of pretreatment with each candidate compounds. Using CyTOF mass-cytometry, the inventors measured the specific inhibition of kinase phosphorylation (i.e., pCREB, pp38, pMAPKA2P, pS6, pERK1/2) in each cell type at the single cell level for each drug (FIGS. 8 and 9).

[3] = tested on: New Zealand White (NZW) rabbits; test: Rabbit model of atherosclerosis, 18F-FDG PET/MRI imaging and histology; assay type: in vivo; details: for 18F-FDG-uptake: rabbit, HFD, 3 months, PET
[4] = Apoe-/- mice, western diet, oral, 16 weeks of treatment, histology
[5] = RNA sequencing of atherosclerotic aortas of treated mice
[6] = atherosclerotic plasma, listed as saracatinib
[7] = histological analysis of rabbit plaques

SMILES: CN1CCN(CCOc2cc(OC3CCOCC3)c3c(Nc4c(Cl)ccc5c4OCO5)ncnc3c2)CC1 [Saracatinib]
- relation of the plaque effect to changes in cholesterol levels ([1]; Apoe-/- mice, western diet, oral, 16 weeks): not related to changes in cholesterol levels
- atherosclerotic plaque inflammation (CD68+ cells) [1, 4]: significantly reduced
- plaque burden/lesional area [1, 4]: significantly reduced
- Fox-p3, a marker of Tregs [1, 5]: upregulated
- genes involved in fatty acid oxidation, TCA cycles and PPAR signaling [1, 5]: upregulation
- CREB phosphorylation ([2]; atherosclerotic plasma): reduced phosphorylation
- S6 phosphorylation ([2]; atherosclerotic plasma): reduced phosphorylation
- CREB phosphorylation [2, 6]: inhibited
- S6 phosphorylation [2, 6]: inhibited
- p38 phosphorylation ([2]; CD14+ and CD16+ monocytes, atherosclerotic plasma): reduced phosphorylation
- reversal of the inflammatory signature activated by atherosclerotic plasma ([2]; CyTOF screening): reversed
- MAPKA2P phosphorylation ([2]; cDC1+ DCs, atherosclerotic plasma): reduced phosphorylation
- inhibition of most specific kinase phosphorylation activated by atherosclerosis plasma ([2]; cell-specificity for monocytes and CD1c+ DC, 30 minutes of pretreatment): significant inhibition; also recorded: stronger inhibition
- plaque inflammation [3, 7]: reduced
- plaque lipid content [3, 7]: reduced
- anti-atherosclerotic effect on existing plaques versus lipid lowering ([3]; rabbit model): independent from lipid lowering
- 18F-FDG-uptake ([3]; in combination with atorvastatin, oral 4/3 mg/Kg/day): reduced
- 18F-FDG-uptake ([3]; saracatinib alone, oral 4 mg/Kg/day): reduced
